PubChem BioAssay AID652243 – Drosophila RNAi Screening Center | 2013
Assay: 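Knock-downs that decrease or increase androgen receptor reporter signal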 (primary screen). Cell system: Drosophila S2R+ cells. Reagents: long dsRNA against Drosophila genes. Time to read-out: 72 h (48 h, then 24 h hormone). Conditions: synthetic androgen R1881 at 10 nM for 24 h. Measured: 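Per-well raw luminescence of the androgen-driven firefly reporter and of the Renilla control, two replicates each, without normalisation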. Direction: firefly reporter light: higher = more light from androgen-responsive reporter; Renilla control light: higher = more constitutive control signal (cell number, transfection). Active means: 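Hit when the log firefly-to-Renilla ratio dropped or increased by a fixed fold versus the mean of GFP or LacZ controls across duplicate plates; lowering cut given as 1.5 and as 3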. Calls: active = hit: reporter lowered or raised; inactive = no hit.
In all, the deposit lists about 24,000 reagents; below is a random part of those that have a named target and a result. In the full data, 246 (1%) got an active call. 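Plates not normalised; calls are printed but the firefly/Renilla ratio behind them is not deposited; fold cut for lowering reported inconsistently.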 The raw values are shown without normalisation. Reagents against one gene are numbered here. The record does not give: the amount of reagent.

| target gene | dsRNA no. | firefly reporter light, replicate 1 | firefly reporter light, replicate 2 | Renilla control light, replicate 1 | Renilla control light, replicate 2 | Call |
| --- | --- | --- | --- | --- | --- | --- |
| Acp53C14a | 1 | 46597 | 41088 | 7.24e5 | 7.24e5 | inactive |
| CG32846 | 1 | 1.50e5 | 3.11e5 | 3.31e5 | 3.46e5 | inactive |
| CG32846 | 2 | 7.20e5 | 5.24e5 | 5.90e5 | 3.29e5 | inactive |
| CG4382 | 1 | 2.75e5 | 2.09e5 | 2.14e6 | 1.62e6 | inactive |
| CG4382 | 2 | 6.95e5 | 1.10e6 | 1.74e6 | 1.74e6 | inactive |
| Cyp313a2 | 1 | 82013 | 85760 | 1.56e6 | 1.53e6 | inactive |
| shv | 1 | 28352 | 29359 | 3.69e5 | 2.70e5 | inactive |
| shv | 2 | 5.65e5 | 7.45e5 | 2.79e6 | 2.36e6 | inactive |
| shv | 3 | 37270 | 94590 | 90071 | 1.45e5 | inactive |
| shv | 4 | 1.54e5 | 1.74e5 | 2.94e5 | 2.17e5 | inactive |
| CG9921 | 1 | 6.19e5 | 5.52e5 | 3.05e6 | 4.22e6 | inactive |
| eIF3m | 1 | 1.13e6 | 8.70e5 | 1.94e6 | 1.32e6 | inactive |
| eIF3m | 2 | 3.21e5 | 3.29e5 | 3.67e5 | 3.77e5 | inactive |
| CG13532 | 1 | 3.91e5 | 3.79e5 | 2.63e6 | 2.30e6 | inactive |
| CG14958 | 1 | 97712 | 1.07e5 | 1.10e6 | 1.04e6 | inactive |
| CG33766 | 1 | 6.28e5 | 7.08e5 | 1.09e6 | 1.34e6 | inactive |
| Cyt-b5-r | 1 | 1.27e5 | 1.54e5 | 1.73e6 | 1.88e6 | inactive |
| papi | 1 | 8.99e5 | 9.71e5 | 4.38e6 | 1.84e6 | inactive |
| CG32686 | 1 | 4.37e5 | 6.04e5 | 1.34e6 | 1.37e6 | inactive |
| CG32686 | 2 | 1.34e6 | 1.71e6 | 1.65e6 | 2.08e6 | inactive |
| CG9394 | 1 | 1.71e5 | 2.03e5 | 1.38e6 | 1.68e6 | inactive |
| CG33514 | 1 | 6.77e5 | 7.05e5 | 2.66e6 | 2.48e6 | inactive |
| CG33514 | 2 | 1.30e5 | 1.28e5 | 1.37e6 | 1.78e6 | inactive |
| CG33514 | 3 | 5.89e5 | 5.25e5 | 2.55e6 | 2.34e6 | inactive |
| rswl | 1 | 1.56e5 | 1.19e5 | 6.20e5 | 5.39e5 | inactive |
| CG18622 | 1 | 2.34e5 | 2.98e5 | 2.29e6 | 2.69e6 | inactive |
| POSH | 1 | 1.22e5 | 1.28e5 | 2.86e6 | 2.86e6 | inactive |
| gogo | 1 | 2.05e5 | 1.53e5 | 1.64e6 | 1.50e6 | inactive |
| gogo | 2 | 2.60e5 | 2.35e5 | 2.30e6 | 1.98e6 | inactive |
| Nup62 | 1 | 8.16e5 | 9.20e5 | 1.52e6 | 1.59e6 | inactive |
| Keap1 | 1 | 1.01e5 | 99644 | 8.13e5 | 7.79e5 | inactive |
| Keap1 | 2 | 5.79e5 | 6.47e5 | 8.83e5 | 7.81e5 | inactive |
| ClC-b | 1 | 1.51e5 | 1.11e5 | 1.06e6 | 1.16e6 | inactive |
| Dgkepsilon | 1 | 1.14e6 | 1.22e6 | 1.84e6 | 2.09e6 | inactive |
| Dgkepsilon | 2 | – | – | – | – | inactive |
| Mipp1 | 1 | 44550 | 46072 | 3.58e5 | 3.90e5 | inactive |
| Mipp1 | 2 | – | – | – | – | inactive |
| Mipp1 | 3 | – | – | – | – | inactive |
| CG6231 | 1 | 2.83e5 | 3.00e5 | 2.99e6 | 3.45e6 | inactive |
| Rnf11 | 1 | 5.04e5 | 5.93e5 | 2.52e6 | 3.06e6 | active |
| Rnf11 | 2 | 3.83e5 | 2.32e5 | 6.25e5 | 6.08e5 | inactive |
| CG14502 | 1 | 9.16e5 | 1.22e6 | 1.82e6 | 1.61e6 | inactive |
| CG5188 | 1 | 1.09e5 | 52406 | 1.08e6 | 8.18e5 | inactive |
| CG2076 | 1 | 4.16e5 | 4.15e5 | 2.75e6 | 2.98e6 | inactive |
| CG2076 | 2 | 4.45e5 | 3.21e5 | 7.78e5 | 5.94e5 | inactive |
| koi | 1 | 1.55e5 | 1.87e5 | 9.86e5 | 1.01e6 | inactive |
| koi | 2 | 2.25e5 | 3.27e5 | 1.75e6 | 2.02e6 | inactive |
| stj | 1 | 1.09e6 | 8.96e5 | 2.87e6 | 2.67e6 | inactive |
| wam | 1 | 1.56e5 | 2.15e5 | 1.65e6 | 2.02e6 | inactive |
| CG17571 | 1 | 1.24e5 | 1.49e5 | 3.77e5 | 2.77e5 | inactive |
| CG17571 | 2 | 1.83e5 | 2.05e5 | 1.58e6 | 1.48e6 | inactive |
| CG17571 | 3 | 7.97e5 | 7.99e5 | 9.96e5 | 9.64e5 | inactive |
| RhoGAPp190 | 1 | 4.39e5 | 4.55e5 | 2.61e6 | 2.03e6 | inactive |
| RhoGAPp190 | 2 | 92563 | 80075 | 9.03e5 | 4.50e5 | inactive |
| CG3650 | 1 | 1.66e5 | 2.38e5 | 1.28e6 | 1.54e6 | inactive |
| CG3650 | 2 | 5.42e5 | 4.54e5 | 1.24e6 | 1.30e6 | inactive |
| Dora | 1 | 61138 | 35528 | 3.67e5 | 1.71e5 | inactive |
| Dora | 2 | 4.02e5 | 1.56e5 | 1.57e6 | 6.14e5 | inactive |
| Dora | 3 | 1.57e5 | 1.02e5 | 7.84e5 | 3.27e5 | inactive |
| Dora | 4 | 2.40e5 | 1.59e5 | 5.63e5 | 2.71e5 | inactive |
| Dora | 5 | 4.85e5 | 3.28e5 | 9.76e5 | 7.25e5 | inactive |
| Dora | 6 | 2.24e5 | 4.76e5 | 4.92e5 | 1.21e6 | inactive |

Reagents listed so far marked active, once more:
| target gene | dsRNA no. | firefly reporter light, replicate 1 | firefly reporter light, replicate 2 | Renilla control light, replicate 1 | Renilla control light, replicate 2 | Call |
| --- | --- | --- | --- | --- | --- | --- |
| Rnf11 | 1 | 5.04e5 | 5.93e5 | 2.52e6 | 3.06e6 | active |
